These are yes or no findings as the source states them, for the method shown. Some binding calls cover weakened binding; strength is not graded here.
B1: anti-EphA2 antibody G5 (antibody, V domains shown)
VH: QMQLVQSGPEVKKPGTSVKVSCKASGFTFTDYSMNWVRQARGQRLEWIGFIRNKANDYTTEYSASVKGRVTITRDMSTSTAYMELSSLRSEDTAVYYCARYPRYHAMDSWGQGTSVTVSS
VL: DIQMTQSPSSLSASVGDRVTITCRASQSISNNLHWYQQKPGKAPKLLIKYVFQSISGVPSRFSGSGSGTDFTFTISSLQPEDFATYYCQQSNSWPLTFGGGTKVEIKG
B2: anti-EphA2 antibody 3F2 (antibody, V domains shown)
VH: EVQLVESGGGVVRPGGSLRLSCAASGFTVSDYSMNWVRQAPGKGLEWIGFIRNKANAYTTEYSASVKGRFTISRDDSKNTLYLQMNSLKTEDTAVYYCTTYPRYHAMDSWGQGTMVTVSS
VL: AIQLTQSPSSLSASVGDRVTITCRASQSISNNLHWYLQKPGQSPQLLIYYGFQSISGVPSRFSGSGSGTDFTLTISSLQPEDFATYYCQQANSWPLTFGGGTKLEIK
B3: anti-EphA2 antibody 1H3 (antibody, V domains shown)
VH: EVQLLESGGGLVQPGGSLRLSCAASGFTFSMYAMRWVRQAPGKGLEWVSVIGPSGGWTPYADSVKGRFTISRDNSKNTLYLQMNSLRAEDTAVYYCARDRGIYGMDVWGQGTTVTVSS
VL: DIQMTQSPSFLSASVGDRVTITCRASQGISSYLAWYQQKPGKAPKLLIYAASTLQSGVPSRFSGSGSGTEFTLTISSLQPEDFATYYCLELNNYPFTFGLGTKVHIK

Chains of the proteins cited; added tags and fusions are not shown. Residues count along the entry.
UniProt P29317, residues 24-976: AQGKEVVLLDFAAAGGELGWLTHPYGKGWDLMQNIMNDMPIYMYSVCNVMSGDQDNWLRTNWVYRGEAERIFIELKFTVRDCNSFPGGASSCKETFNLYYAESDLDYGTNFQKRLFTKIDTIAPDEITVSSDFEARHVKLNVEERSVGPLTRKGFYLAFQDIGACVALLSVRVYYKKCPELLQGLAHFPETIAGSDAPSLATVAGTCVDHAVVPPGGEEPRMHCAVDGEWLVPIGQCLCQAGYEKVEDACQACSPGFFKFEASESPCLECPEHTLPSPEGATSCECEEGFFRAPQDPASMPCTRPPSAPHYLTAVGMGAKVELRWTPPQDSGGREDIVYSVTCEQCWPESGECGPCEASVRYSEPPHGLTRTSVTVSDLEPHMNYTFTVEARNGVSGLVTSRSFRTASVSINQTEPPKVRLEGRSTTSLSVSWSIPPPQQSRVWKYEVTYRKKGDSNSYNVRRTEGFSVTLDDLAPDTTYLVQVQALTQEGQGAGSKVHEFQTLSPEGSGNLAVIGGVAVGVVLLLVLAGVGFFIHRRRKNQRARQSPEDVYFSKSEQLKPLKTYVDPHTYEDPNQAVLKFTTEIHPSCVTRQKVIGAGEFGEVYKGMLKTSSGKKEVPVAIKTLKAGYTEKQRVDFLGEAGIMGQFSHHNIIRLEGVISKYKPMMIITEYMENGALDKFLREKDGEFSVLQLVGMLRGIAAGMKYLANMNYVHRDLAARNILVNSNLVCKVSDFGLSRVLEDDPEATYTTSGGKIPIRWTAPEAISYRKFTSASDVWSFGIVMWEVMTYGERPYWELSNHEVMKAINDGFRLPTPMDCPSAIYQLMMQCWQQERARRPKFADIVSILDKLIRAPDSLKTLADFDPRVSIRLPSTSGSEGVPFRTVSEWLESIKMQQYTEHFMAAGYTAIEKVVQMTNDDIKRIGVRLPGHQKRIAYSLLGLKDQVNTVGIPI
UniProt D3ZBN3, residues 23-977: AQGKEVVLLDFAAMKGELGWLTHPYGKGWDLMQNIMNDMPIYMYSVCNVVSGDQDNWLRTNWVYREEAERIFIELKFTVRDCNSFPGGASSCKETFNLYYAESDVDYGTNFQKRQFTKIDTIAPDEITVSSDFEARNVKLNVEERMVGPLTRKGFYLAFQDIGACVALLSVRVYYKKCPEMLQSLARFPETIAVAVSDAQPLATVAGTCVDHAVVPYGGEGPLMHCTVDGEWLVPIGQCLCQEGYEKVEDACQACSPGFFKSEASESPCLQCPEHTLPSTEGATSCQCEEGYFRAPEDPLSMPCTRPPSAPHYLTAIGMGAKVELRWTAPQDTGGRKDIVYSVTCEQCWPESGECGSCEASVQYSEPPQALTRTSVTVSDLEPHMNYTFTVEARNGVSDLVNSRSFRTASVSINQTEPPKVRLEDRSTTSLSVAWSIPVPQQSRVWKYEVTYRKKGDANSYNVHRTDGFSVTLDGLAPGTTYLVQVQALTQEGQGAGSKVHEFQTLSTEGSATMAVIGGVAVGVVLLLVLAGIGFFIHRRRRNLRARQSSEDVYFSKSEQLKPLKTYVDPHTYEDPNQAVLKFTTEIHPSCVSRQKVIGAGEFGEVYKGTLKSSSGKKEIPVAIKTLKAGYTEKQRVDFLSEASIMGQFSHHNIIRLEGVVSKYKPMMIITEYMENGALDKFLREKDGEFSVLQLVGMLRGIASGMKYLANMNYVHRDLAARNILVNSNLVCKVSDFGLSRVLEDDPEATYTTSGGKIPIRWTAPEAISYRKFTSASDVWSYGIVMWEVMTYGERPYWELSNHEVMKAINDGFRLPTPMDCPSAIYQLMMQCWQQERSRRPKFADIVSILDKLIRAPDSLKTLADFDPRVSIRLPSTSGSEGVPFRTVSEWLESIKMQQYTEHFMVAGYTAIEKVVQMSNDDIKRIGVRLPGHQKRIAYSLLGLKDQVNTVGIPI

Tests used:
[1] = biological target: human EphA2 expressed on cells (human) (UniProt P29317); test: immunofluorescence of PC3 cells labeled with 50 ug/ml antibody at 4 C, fixed, permeabilized, AlexaFluor 488 secondary antibody
[2] = biological target: rat EphA2 expressed on cells (rat) (UniProt D3ZBN3); test: flow cytometry on tumor cell lines, 1 ug antibody, PE anti-human IgG

| Binder | binding [1] | binding [2] |
| --- | --- | --- |
| B1 | binds | – |
| B2 | – | binds |
| B3 | – | binds |

From patent US20090304721A1, “TOXIN […] RECEPTOR ANTIBODIES” (priority 2005, published 2009)
